According to PMC3705588:
Positions count from the first letter of the chain named. These are yes or no findings as the source states them, for the method shown. In cells and extracts the contact can be indirect. Some results given as binding are weak or reduced against the parent protein; the word gives no strength. Tags and fused reporters may be left off the sequences shown. Each block holds one molecule with its values, some of them ahead of it.

Sequences of proteins named here, by UniProt entry; tags and fusion partners are left off.
UniProt Q13547: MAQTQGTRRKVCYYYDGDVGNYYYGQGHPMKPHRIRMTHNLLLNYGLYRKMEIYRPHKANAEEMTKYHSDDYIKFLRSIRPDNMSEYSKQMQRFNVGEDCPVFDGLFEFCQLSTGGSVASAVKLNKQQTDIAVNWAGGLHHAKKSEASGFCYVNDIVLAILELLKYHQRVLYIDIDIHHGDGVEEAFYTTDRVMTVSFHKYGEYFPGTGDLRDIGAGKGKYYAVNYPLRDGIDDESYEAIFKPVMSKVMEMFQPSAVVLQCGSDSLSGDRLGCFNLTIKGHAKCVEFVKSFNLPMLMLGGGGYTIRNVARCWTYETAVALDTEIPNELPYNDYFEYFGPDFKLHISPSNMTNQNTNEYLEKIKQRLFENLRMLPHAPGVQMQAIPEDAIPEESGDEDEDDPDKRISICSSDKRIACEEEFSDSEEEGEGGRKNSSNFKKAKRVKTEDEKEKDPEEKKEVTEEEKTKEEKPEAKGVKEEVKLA

Tests used:
[1] = target: T1, FLAG-ING2_(6K/Rmt), full-length (UniProt Q9H160); experiment: co-IP; FLAG immunoprecipitates (anti-FLAG M2-conjugated agarose, eluted with 0.4 mg/ml FLAG peptide) from HT1080 populations stably expressing FLAG-ING2 forms; lysis buffer 50 mM Tris-HCl pH 7.4, 250 mM NaCl, 0.5% Triton X-100, 10% glycerol; immunoblot
T1 sequence: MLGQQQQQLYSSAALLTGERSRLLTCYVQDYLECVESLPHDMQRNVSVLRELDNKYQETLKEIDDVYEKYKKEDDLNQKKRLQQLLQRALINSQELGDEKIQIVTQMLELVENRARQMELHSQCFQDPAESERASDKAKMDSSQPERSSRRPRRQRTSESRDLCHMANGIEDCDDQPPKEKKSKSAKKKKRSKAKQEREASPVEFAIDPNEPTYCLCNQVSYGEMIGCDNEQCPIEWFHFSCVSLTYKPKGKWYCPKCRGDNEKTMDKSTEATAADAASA

[2] = target: T2, FLAG-ING2WT, full-length wild-type ING2 (UniProt Q9H160); experiment: as above
T2 sequence: T1 sequence with A272K, A274K, A275K, A277R, A278R, A280R

- binding [1]: binds
- binding [2]: binds
Molecule: HDAC1 (histone deacetylase 1) (from UniProt Q13547 1-482) (enzyme)

- binding [1]: binds
- binding [2]: binds
B1: SAP30 (protein, UniProt O75446 1-220)
chain: MNGFTPDEMSRGGDAAAAVAAVVAAAAAAASAGNGTGAGTGAEVPGAGAVSAAGPPGAAGPGPGQLCCLREDGERCGRAAGNASFSKRIQKSISQKKVKIELDKSARHLYICDYHKNLIQSVRNRRKRKGSDDDGGDSPVQDIDTPEVDLYQLQVNTLRRYKRHFKLPTRPGLNKAQLVEIVGCHFRSIPVNEKDTLTYFIYSVKNDKNKSDLKVDSGVH
